The other results are listed elsewhere or left out. These are further read-outs of the screen, such as a control signal, another cell line or another target. No call is given for them. Compounds called inactive in the main read-out are mostly missing here. Potencies come from curve fits of mixed quality, noted in brackets.
Test: qHTS Assay for Lipid Storage Modulators in Drosophila S3 Cells;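 as to cell number change: cells counted by Cell Tracker Red CMTPX staining in the red channel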
Conditions: BODIPY lipid droplet fluorescence, 18-24 h; for cell number change: measured here: cell count max response, cells fed with added oleic acid
Procedure, shortened: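 Laser-scanning cytometry quantifies lipid droplet accumulation (500–530 nm total intensity; droplet/cell object ratio) in oleic acid-fed (400 uM added) Drosophila S3 cells treated with a concentration series. 20 uM Triacsin C defined 100% inhibition.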

[1] = measured here: lipid fluorescence (Fed channel) AC50, cells fed with added oleic acid
[2] = measured here: cell number channel AC50, cells fed with added oleic acid

Q: What does the source list for `CC(=O)N=c1sc(C(C)(C)C)c(C)n1C`?
A: cell number change: -4.68%; AC50 [1]: 1.84 µM [rising, partial curve]

Q: What does the source list for `CCCCCCCn1c2c(c(=N)c3ccccc31)CCC2`?
A: cell number change: -66.1%; AC50 [2]: 5.8 µM [falling, full curve]; AC50 [1]: 8.2 µM [falling, partial curve]

Q: Which results are given for `O=C(O)C1=C(C(=O)N2CCN(C(=O)c3ccco3)CC2)CCCC1`?
A: cell number change: -1.29%; AC50 [1]: 18.4 µM [rising, partial curve, poor fit]

Q: Which cell number change does the source give for `Cc1ccc(NC(=O)c2csc(-c3ccccc3)c2C)cc1` here?
A: -2.39%

Q: What about the AC50 [1] of the same molecule?
A: 6.51 µM [falling, single point]

Q: Which cell number change does the source give for `COC(=O)C1C(=O)OC(C)(C)C1C(C)C(=O)c1ccccc1` (centres undefined) here?
A: -32.4%

Q: What about the AC50 [2] of the same molecule?
A: 3.66 µM [falling, full curve]

Q: For `COc1ccc(C(=O)OCCOc2cccc(Cl)c2)cc1S(=O)(=O)N1CCOCC1`, which AC50 [1] is on record?
A: 6.51 µM [falling, single point]

Q: Which AC50 [1] does the source give for `C/C(=N/NC(=O)c1ccc(O)cc1)c1cccc([N+](=O)[O-])c1` here?
A: 6.51 µM [rising, single point]

Q: Which results are given for `CCc1c(C(=O)NCCc2cccc(C)c2)[nH]c(C)c1C(C)=O`?
A: cell number change: 11.1%; AC50 [1]: 0.461 µM [falling, full curve, poor fit]

Q: With `CCCc1cnc(NCCNCC(O)COc2ccc(Cl)c(Cl)c2)nc1` (centres undefined) as the molecule, how does the cell number change read?
A: -51.5%

Q: What about the AC50 [2] of the same molecule?
A: 29.1 µM [falling, single point]

Q: And the AC50 [1]?
A: 18.4 µM [falling, single point]

Q: What does the source list for `Cc1ccc(/C=C/C(=O)OCC(=O)N(CC(C)C)c2c(N)n(Cc3ccccc3)c(=O)[nH]c2=O)o1`?
A: cell number change: -12.1%; AC50 [1]: 0.164 µM [falling, full curve, poor fit]

Q: With `CN(C)CCCN(C(=O)c1ccc2c(c1)OCCO2)c1nc2ccc(Cl)cc2s1` as the molecule, how does the cell number change read?
A: 8.44%

Q: What about the AC50 [1] of the same molecule?
A: 0.231 µM [rising, full curve]

Q: What does the source list for `CCC(=O)NC(Nc1ccccn1)(C(=O)OC)C(F)(F)F` (centres undefined)?
A: cell number change: -8.14%; AC50 [1]: 0.259 µM [rising, full curve, poor fit]

Q: With `Cc1ccc(-c2csc(NC(=O)c3c(C)noc3C)n2)cc1C` as the molecule, how does the cell number change read?
A: -12.1%

Q: What about the AC50 [1] of the same molecule?
A: 29.1 µM [falling, single point]

Q: For `O=C(NNC(=O)c1ccc(-n2cncn2)c([N+](=O)[O-])c1)c1cccc(Cl)c1`, which cell number change is on record?
A: 35%

Q: And the AC50 [2]?
A: 6.51 µM [rising, partial curve]

Q: Which cell number change does the source give for `CCc1noc(C)c1C(=O)Nc1cc(Cl)ccc1N1CCOCC1` here?
A: 40%

Q: And the AC50 [2]?
A: 23.1 µM [rising, single point]

Q: And the AC50 [1]?
A: 16.4 µM [rising, single point]

Q: For `FC(F)(F)c1ccccc1C1C2=C(Nc3ncnn31)c1ccccc1CCC2` (centres undefined), which cell number change is on record?
A: -3.99%

Q: And the AC50 [1]?
A: 0.82 µM [rising, single point]

Q: For `CCCC(=O)Oc1ccc(C2NC(=O)c3ccccc3O2)cc1` (centres undefined), which cell number change is on record?
A: 18.2%

Q: For `CCN(Cc1cnn(C)c1)Cc1nc(Cc2ccccc2Cl)no1`, which cell number change is on record?
A: 6.91%

Q: What about the AC50 [1] of the same molecule?
A: 29.1 µM [rising, single point]

Q: With `CN(CC(=O)Nc1ccccc1C(F)(F)F)C(=O)c1cc2c(s1)CCCCC2` as the molecule, how does the cell number change read?
A: 0.905%

Q: What about the AC50 [1] of the same molecule?
A: 5.17 µM [falling, single point]

Q: Which cell number change does the source give for `c1ccc(-n2ncc3c2ncn2nc(CSc4nc5ccccc5s4)nc32)cc1` here?
A: -47.4%

Q: What about the AC50 [2] of the same molecule?
A: 1.84 µM [falling, partial curve]

Q: And the AC50 [1]?
A: 3.26 µM [rising, partial curve, poor fit]

Q: With `COc1ccc(N2CCN(C(=S)Nc3ccccc3OC)CC2)cc1` as the molecule, how does the cell number change read?
A: 27.7%

Q: And the AC50 [2]?
A: 0.00517 µM [rising, full curve, poor fit]

Q: What about the AC50 [1] of the same molecule?
A: 6.51 µM [rising, single point]

Q: For `Cc1cccc(NS(=O)(=O)c2c(C(=O)N3CCCC3)c(C)n(C)c2C)c1`, which cell number change is on record?
A: -10.1%

Q: Which cell number change does the source give for `Nc1cc(C(=O)N/N=C/c2cccc([N+](=O)[O-])c2)n[nH]c1=O` here?
A: 15.2%

Q: And the AC50 [1]?
A: 20.6 µM [rising, single point]

Q: With `Cc1ccc(S(=O)(=O)Nc2ccncc2)c(C)c1N(C)S(=O)(=O)c1ccc(F)cc1` as the molecule, how does the AC50 [1] read?
A: 0.231 µM [falling, full curve, poor fit]

Q: For `Cc1ccc(Nc2nc(Oc3ccc(=O)[nH]n3)nc(N(C)C)n2)cc1`, which cell number change is on record?
A: 30.3%

Q: What about the AC50 [2] of the same molecule?
A: 0.651 µM [rising, full curve, poor fit]

Q: And the AC50 [1]?
A: 0.58 µM [rising, single point]

Q: With `CCCC(=O)Nc1ccccc1N1CCN(C(=O)C(C)C)CC1` as the molecule, how does the cell number change read?
A: -2.51%

Q: What about the AC50 [1] of the same molecule?
A: 0.0231 µM [rising, full curve, poor fit]

Q: Which cell number change does the source give for `O=C(NC1CCCC1)C(c1cccnc1)N(C(=O)c1csnn1)c1ccc(F)cc1` (centres undefined) here?
A: -26.7%

Q: And the AC50 [1]?
A: 6.51 µM [rising, single point]

Q: What does the source list for `Cc1cc(C)c(NC(=O)Nc2ccccc2)c(C)n1`?
A: cell number change: -3.44%; AC50 [1]: 0.164 µM [rising, full curve, poor fit]

Q: Which cell number change does the source give for `O=C(CN1C(=O)NC2(CCCCC2)C1=O)Oc1ccc2ccc(=O)oc2c1` here?
A: -2.2%

Q: And the AC50 [1]?
A: 0.326 µM [rising, single point]

Q: Which results are given for `COc1ccc(N(CC(=O)NCCSC2CCCCC2)S(=O)(=O)c2ccccc2)c(OC)c1`?
A: cell number change: 2.05%; AC50 [1]: 29.1 µM [falling, single point]

Q: For `COCCNC(=S)NC12CC3CC(CC(C3)C1)C2`, which cell number change is on record?
A: -11.1%

Q: What about the AC50 [1] of the same molecule?
A: 3.26 µM [falling, full curve]

Q: Which results are given for `COc1cccc(C2NC(=O)c3ccccc3O2)c1OC` (centres undefined)?
A: cell number change: -10.3%; AC50 [1]: 29.1 µM [falling, single point]

Q: With `COC(=O)[C@H](CC(C)C)NC(=O)CCc1nnc(COc2ccccc2)o1` as the molecule, how does the AC50 [1] read?
A: 8.2 µM [falling, partial curve]

Q: With `CCCCn1c(CNC(=O)C23CC4CC(CC(C4)C2)C3)nnc1SCC(=O)Nc1nnc(C)s1` as the molecule, how does the cell number change read?
A: 6.16%

Q: And the AC50 [2]?
A: 0.651 µM [falling, full curve, poor fit]

Q: And the AC50 [1]?
A: 0.651 µM [falling, full curve]

Q: For `COc1cc(-n2nnnc2SCC(=O)N2CCN(c3ccc(F)cc3)CC2)c(OC)cc1Cl`, which AC50 [1] is on record?
A: 18.4 µM [falling, single point]

Q: For `Cc1ccccc1N(C(=O)CNC(=O)c1ccco1)C(C(=O)NC1CCCC1)c1ccncc1` (centres undefined), which cell number change is on record?
A: 32.4%

Q: What about the AC50 [2] of the same molecule?
A: 7.31 µM [rising, partial curve]

Q: With `COc1ccc(C(=O)/C=C\N2CCOCC2)cc1` as the molecule, how does the cell number change read?
A: 26.2%

Q: What about the AC50 [1] of the same molecule?
A: 4.11 µM [rising, single point]

From PubChem BioAssay AID2685 (National Center for Advancing Translational Sciences (NCATS), 2010)
